Reference: ChEMBL document CHEMBL4316593 (Eur J Med Chem, 2019)
This continues a long series; more values of the same kind are listed elsewhere.

Legend:
Type in all cases: cell-based
Settings in all cases: U-87MG ATCC
[1] = Inhibition of RTK/PI3K/AKT/mTOR signaling in human U87 cells assessed as down regulation of PCLO gene expression at cytotoxic IC50 measured after 48 hrs relative to control
[2] = Inhibition of RTK/PI3K/AKT/mTOR signaling in human U87 cells assessed as down regulation of FAM111B gene expression at cytotoxic IC50 measured after 48 hrs relative to control
[3] = Inhibition of RTK/PI3K/AKT/mTOR signaling in human U87 cells assessed as down regulation of GSKIP gene expression at cytotoxic IC50 measured after 48 hrs relative to control
[4] = Inhibition of RTK/PI3K/AKT/mTOR signaling in human U87 cells assessed as down regulation of ZSWIM6 gene expression at cytotoxic IC50 measured after 48 hrs relative to control
[5] = Inhibition of RTK/PI3K/AKT/mTOR signaling in human U87 cells assessed as down regulation of WASL gene expression at cytotoxic IC50 measured after 48 hrs relative to control
[6] = Inhibition of RTK/PI3K/AKT/mTOR signaling in human U87 cells assessed as down regulation of IFFO2 gene expression at cytotoxic IC50 measured after 48 hrs relative to control
[7] = Inhibition of RTK/PI3K/AKT/mTOR signaling in human U87 cells assessed as down regulation of RSRC2 gene expression at cytotoxic IC50 measured after 48 hrs relative to control
[8] = Inhibition of RTK/PI3K/AKT/mTOR signaling in human U87 cells assessed as down regulation of IGHMBP2 gene expression at cytotoxic IC50 measured after 48 hrs relative to control
[9] = Inhibition of RTK/PI3K/AKT/mTOR signaling in human U87 cells assessed as down regulation of SLC45A4 gene expression at cytotoxic IC50 measured after 48 hrs relative to control
[10] = Inhibition of RTK/PI3K/AKT/mTOR signaling in human U87 cells assessed as down regulation of PPP3CC gene expression at cytotoxic IC50 measured after 48 hrs relative to control
[11] = Inhibition of RTK/PI3K/AKT/mTOR signaling in human U87 cells assessed as down regulation of YIPF1 gene expression at cytotoxic IC50 measured after 48 hrs relative to control
[12] = Inhibition of RTK/PI3K/AKT/mTOR signaling in human U87 cells assessed as down regulation of TNRC6C gene expression at cytotoxic IC50 measured after 48 hrs relative to control
[13] = Inhibition of RTK/PI3K/AKT/mTOR signaling in human U87 cells assessed as down regulation of SCPEP1 gene expression at cytotoxic IC50 measured after 48 hrs relative to control
[14] = Inhibition of RTK/PI3K/AKT/mTOR signaling in human U87 cells assessed as down regulation of GINM1 gene expression at cytotoxic IC50 measured after 48 hrs relative to control
[15] = Inhibition of RTK/PI3K/AKT/mTOR signaling in human U87 cells assessed as down regulation of SAP18 gene expression at cytotoxic IC50 measured after 48 hrs relative to control
[16] = Inhibition of RTK/PI3K/AKT/mTOR signaling in human U87 cells assessed as down regulation of LRPAP1 gene expression at cytotoxic IC50 measured after 48 hrs relative to control
[17] = Inhibition of RTK/PI3K/AKT/mTOR signaling in human U87 cells assessed as down regulation of ATP6AP2 gene expression at cytotoxic IC50 measured after 48 hrs relative to control
[18] = Inhibition of RTK/PI3K/AKT/mTOR signaling in human U87 cells assessed as up regulation of SSPO gene expression at cytotoxic IC50 measured after 48 hrs relative to control
[19] = Inhibition of RTK/PI3K/AKT/mTOR signaling in human U87 cells assessed as up regulation of laminin subunit beta 3 gene expression at cytotoxic IC50 measured after 48 hrs relative to control
[20] = Inhibition of RTK/PI3K/AKT/mTOR signaling in human U87 cells assessed as up regulation of ATP binding cassette subfamily G member 1 gene expression at cytotoxic IC50 measured after 48 hrs relative to control
[21] = Inhibition of RTK/PI3K/AKT/mTOR signaling in human U87 cells assessed as up regulation of ATPase phospholipid transporting 8B3 gene expression at cytotoxic IC50 measured after 48 hrs relative to control
[22] = Inhibition of RTK/PI3K/AKT/mTOR signaling in human U87 cells assessed as up regulation of ORAI calcium release-activated calcium modulator 2 gene expression at cytotoxic IC50 measured after 48 hrs relative to control
[23] = Inhibition of RTK/PI3K/AKT/mTOR signaling in human U87 cells assessed as up regulation of ubiquitin like 4A gene expression at cytotoxic IC50 measured after 48 hrs relative to control
[24] = Inhibition of RTK/PI3K/AKT/mTOR signaling in human U87 cells assessed as up regulation of ras-related C3 botulinum toxin substrate 2 (rho family, small GTP binding protein Rac2) gene expression at cytotoxic IC50 measured after 48 hrs relative to control
[25] = Inhibition of RTK/PI3K/AKT/mTOR signaling in human U87 cells assessed as up regulation of NUAK family kinase 1 gene expression at cytotoxic IC50 measured after 48 hrs relative to control
[26] = Inhibition of RTK/PI3K/AKT/mTOR signaling in human U87 cells assessed as up regulation of sideroflexin 4 gene expression at cytotoxic IC50 measured after 48 hrs relative to control
[27] = Inhibition of RTK/PI3K/AKT/mTOR signaling in human U87 cells assessed as up regulation of 7-dehydrocholesterol reductase gene expression at cytotoxic IC50 measured after 48 hrs relative to control
[28] = Inhibition of RTK/PI3K/AKT/mTOR signaling in human U87 cells assessed as up regulation of Kruppel like factor 16 gene expression at cytotoxic IC50 measured after 48 hrs relative to control
[29] = Inhibition of RTK/PI3K/AKT/mTOR signaling in human U87 cells assessed as up regulation of ZBTB4 gene expression at cytotoxic IC50 measured after 48 hrs relative to control
[30] = Inhibition of RTK/PI3K/AKT/mTOR signaling in human U87 cells assessed as up regulation of CD55 gene expression at cytotoxic IC50 measured after 48 hrs relative to control
[31] = Inhibition of RTK/PI3K/AKT/mTOR signaling in human U87 cells assessed as up regulation of SLC25A3 gene expression at cytotoxic IC50 measured after 48 hrs relative to control
[32] = Inhibition of RTK/PI3K/AKT/mTOR signaling in human U87 cells assessed as up regulation of DDOST gene expression at cytotoxic IC50 measured after 48 hrs relative to control

CC(=O)C(=NNc1ccccc1C#N)C(C)=O
log2FC [1]: -2.34 | log2FC [2]: -2.29 | log2FC [3]: -1.76 | log2FC [4]: -1.45 | log2FC [5]: -1.09 | log2FC [6]: -0.997 | log2FC [7]: -0.862 | log2FC [8]: -0.854 | log2FC [9]: -0.848 | log2FC [10]: -0.833 | log2FC [11]: -0.789 | log2FC [12]: -0.667 | log2FC [13]: -0.594 | log2FC [14]: -0.572 | log2FC [15]: -0.525 | log2FC [16]: -0.445 | log2FC [17]: -0.39 | log2FC [18]: 1.86 | log2FC [19]: 1.56 | log2FC [20]: 1.47 | log2FC [21]: 1.41 | log2FC [22]: 1.35 | log2FC [23]: 0.996 | log2FC [24]: 0.826 | log2FC [25]: 0.809 | log2FC [26]: 0.802 | log2FC [27]: 0.745 | log2FC [28]: 0.67 | log2FC [29]: 0.612 | log2FC [30]: 0.57 | log2FC [31]: 0.486 | log2FC [32]: 0.441
